Laboratory results reported in paper PMC7542892.
Results are given in words; binding and its absence hold for the method and conditions named. In cells and extracts the contact can be indirect. Some entries that bind do so weakly or less than the wild type.

Amino acid sequences for entries named in this document (tags omitted). Residues count along the entry.
UniProt O75460, residues 19-977: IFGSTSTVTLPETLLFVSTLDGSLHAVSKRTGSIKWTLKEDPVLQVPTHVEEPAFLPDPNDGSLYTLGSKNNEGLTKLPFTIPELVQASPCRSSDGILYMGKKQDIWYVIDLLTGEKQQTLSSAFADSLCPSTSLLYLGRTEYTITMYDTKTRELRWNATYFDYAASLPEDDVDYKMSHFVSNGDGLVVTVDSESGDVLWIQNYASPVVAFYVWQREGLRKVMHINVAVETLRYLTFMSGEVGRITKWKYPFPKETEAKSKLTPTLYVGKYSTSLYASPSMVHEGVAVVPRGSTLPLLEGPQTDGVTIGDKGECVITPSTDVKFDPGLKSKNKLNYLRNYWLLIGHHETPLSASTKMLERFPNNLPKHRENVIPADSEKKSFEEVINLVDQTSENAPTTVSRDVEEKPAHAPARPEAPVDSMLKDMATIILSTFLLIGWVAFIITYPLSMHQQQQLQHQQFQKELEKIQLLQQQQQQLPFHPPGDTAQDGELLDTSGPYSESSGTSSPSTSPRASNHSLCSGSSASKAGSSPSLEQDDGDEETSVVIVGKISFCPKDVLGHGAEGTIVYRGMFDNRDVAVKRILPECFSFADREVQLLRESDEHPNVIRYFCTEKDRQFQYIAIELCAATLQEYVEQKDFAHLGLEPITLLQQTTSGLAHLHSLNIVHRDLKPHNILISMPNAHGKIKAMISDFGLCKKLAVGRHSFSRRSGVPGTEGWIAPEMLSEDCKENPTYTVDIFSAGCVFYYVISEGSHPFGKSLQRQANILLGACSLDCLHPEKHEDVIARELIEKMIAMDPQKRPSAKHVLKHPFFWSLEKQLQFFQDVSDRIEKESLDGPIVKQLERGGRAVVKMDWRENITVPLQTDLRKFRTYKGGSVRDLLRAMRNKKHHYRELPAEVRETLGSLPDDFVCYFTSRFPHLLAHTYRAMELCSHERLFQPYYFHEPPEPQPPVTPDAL

Molecular target: inositol-requiring enzyme 1α (human (endogenous in Capan-2 and SW1990)) (UniProt O75460)
Assay: co-IP; lysates of Capan-2 and SW1990 cells, without or with thapsigargin (TG) treatment; magnetic beads preincubated with CRT, IRE1α or IgG antibodies, incubated with soluble supernatants at 4 °C overnight; Western blot

“Calreticulin (from UniProt P27797 18-417)” was tested, and the binding was “binds”.
